Our source for the binding signal values is PMC7819943, “Rice protein-binding microarrays: a tool to detect cis-acting elements near promoter regions in rice”.

The other results are listed elsewhere or left out.

For the assay, the target named is T1, OsSMF1 (Oryza sativa, UniProt Q6ZLB0 1-436).
T1 sequence: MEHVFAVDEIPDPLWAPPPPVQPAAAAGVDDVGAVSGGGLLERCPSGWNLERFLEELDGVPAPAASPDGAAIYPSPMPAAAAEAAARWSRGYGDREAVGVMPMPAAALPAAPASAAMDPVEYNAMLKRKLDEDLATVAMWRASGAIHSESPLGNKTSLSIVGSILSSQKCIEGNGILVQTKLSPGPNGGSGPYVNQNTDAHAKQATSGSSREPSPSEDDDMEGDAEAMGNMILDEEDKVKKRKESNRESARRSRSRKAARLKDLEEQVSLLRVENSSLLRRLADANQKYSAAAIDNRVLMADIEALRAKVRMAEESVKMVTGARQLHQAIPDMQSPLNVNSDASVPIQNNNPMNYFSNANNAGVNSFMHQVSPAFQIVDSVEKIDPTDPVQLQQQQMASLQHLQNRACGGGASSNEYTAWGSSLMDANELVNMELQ
Briefly: protein-binding microarray (RPBM); PBS, 2% BSA, 51.3 ng/ul salmon testes DNA, 50 uM zinc acetate, 200 nM TF, 25 C, 1 h; high values mean tight binding. The conditions noted are these: protein: recombinant; tags: N-terminal polyhistidine and DsRed monomer fusion (pET32a); chain copies: 2; label: CyDye5-dUTP incorporated in the synthesized complementary strand; 3' TTTTT single-stranded linker to array surface; dsDNA, one strand shown. In a few lines:
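Binding signal here means per-feature fluorescence intensity in arbitrary units. The values were read on an Axon 4000B scanner after a custom Agilent array, double-stranded by primer extension with Cy5-dUTP, was incubated with 200 nM protein at 25 °C for 1 h in PBS with 2% BSA, salmon testes DNA and 50 µM zinc acetate, then washed. The proteins were transcription factors with an N-terminal polyhistidine tag and DsRed, expressed in E. coli BL21-CodonPlus and purified on Ni–NTA.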
For the sequence “CTGTTTCAGCACCACTGAGTTCGCAGCAAATGACACAAGGCGGAGTCACCTAGTGCAG”, the binding signal was 3340 fluorescence intensity (a.u.).

As to “CTAATACTCATTTAATGAGGGGCATATATCCTTTTCTCTCCGGAGTCACCTAGTGCAG”, the binding signal was 30800 fluorescence intensity (a.u.).

With “TGTGGGGTCCACGTAATGCCACGTCAGCGCAACCTAGGAACGGAGTCACCTAGTGCAG”, the binding signal was 37100 fluorescence intensity (a.u.).

Take “AAGGAGCCTCCACGTTCGCTCTCATGGCCTAGAAATTCTCCGGAGTCACCTAGTGCAG”: the binding signal is 3540 fluorescence intensity (a.u.).

Regarding “TTCAAATGCCACCTAAGCGCCACGTCAACCCCATAGACTGCGGAGTCACCTAGTGCAG”, the binding signal is 39500 fluorescence intensity (a.u.).

With “AAGAAAATGGAATCTAGGTGTAATCATCTACCACCGGTAACGGAGTCACCTAGTGCAG”, the binding signal was 3140 fluorescence intensity (a.u.).

As for “TGGAAAAGTCTGTGCTGTATTATTGAACCAGTCCTTCCAGCGGAGTCACCTAGTGCAG”, the binding signal was 8990 fluorescence intensity (a.u.).

“ATGGGATATCCATAATCTCCACACCAGGGGACTCCCTCATCGGAGTCACCTAGTGCAG”: the binding signal is 30300 fluorescence intensity (a.u.).

“CACTCACATGTGTGTCCAATCTCCATGATGTTCACATCACCGGAGTCACCTAGTGCAG”: the binding signal is 3540 fluorescence intensity (a.u.).

For “TCCCCTTTTCAACCCACAGTACTATCCACGTCCGTACTATCGGAGTCACCTAGTGCAG”, the binding signal is 3920 fluorescence intensity (a.u.).

As for “GCGGTGTTGACTTCTTACAAGGACGTGTTCCCATGTCTCACGGAGTCACCTAGTGCAG”, the binding signal is 4460 fluorescence intensity (a.u.).

For “AGAACCACAGATGGAGCGCTAATCATTGGTGCCGATCGGCCGGAGTCACCTAGTGCAG”, the binding signal is 17900 fluorescence intensity (a.u.).

As to “TCTCATTGACAAGCCAACAAACGCACAGTGTGACAAGCTCCGGAGTCACCTAGTGCAG”, the binding signal is 35300 fluorescence intensity (a.u.).

For the sequence “ATATACCGTACCCCATCGCCATCGATCGGTGTCATTCATTCGGAGTCACCTAGTGCAG”, the binding signal is 3400 fluorescence intensity (a.u.).

Take “GAAATATATATTACTAATGTTACTTTTGTTACGGTTGTAGCGGAGTCACCTAGTGCAG”: the binding signal was 20100 fluorescence intensity (a.u.).

Consider “TACTTTTCCAACCCAACCTCAAACACAACCAATCCACCTCCGGAGTCACCTAGTGCAG”, for which the binding signal is 3260 fluorescence intensity (a.u.).

Consider “TCCATGGAAATGGTTCTCGATTGATCGGTAGTTTTCGTATCGGAGTCACCTAGTGCAG”, for which the binding signal is 3200 fluorescence intensity (a.u.).

Regarding “GCCGCCGCACGGCTTGTCGTTGTCATCGTCGTCACCTTGTCGGAGTCACCTAGTGCAG”, the binding signal is 3920 fluorescence intensity (a.u.).

For the sequence “GGTGCAGTTCATCATATGTGTTAGACTAATTGAGTAATTGCGGAGTCACCTAGTGCAG”, the binding signal is 36500 fluorescence intensity (a.u.).

Turning to “CCCGCATACATGTCGTCCGCGGCCGTGGCGTCTCCGAGGGCGGAGTCACCTAGTGCAG”, the binding signal was 3180 fluorescence intensity (a.u.).

Turning to “CCTCTGCGCAACCGAAGCAAGGTGACGCATCCGATCTCCGCGGAGTCACCTAGTGCAG”, the binding signal is 4150 fluorescence intensity (a.u.).

Turning to “CCTTTAACTAATGTTCACTTTGGACCGGATAATCTTACCTCGGAGTCACCTAGTGCAG”, the binding signal is 3810 fluorescence intensity (a.u.).

With “AAAATTGGTGGTTGCTGCGCCTGCTGGTGCCAGATGTTATCGGAGTCACCTAGTGCAG”, the binding signal was 3190 fluorescence intensity (a.u.).

Consider “AAGGGAGAGGAGCTTACGTGGCATCCTGACATGTGGGCACCGGAGTCACCTAGTGCAG”, for which the binding signal was 23400 fluorescence intensity (a.u.).

Regarding “TGTTCTTCAGGAAGGCGTCCTCGACGACGTGTCGGCGATGCGGAGTCACCTAGTGCAG”, the binding signal was 5300 fluorescence intensity (a.u.).

As for “GAAGGGAGCAGTACGGCCAGAGAGCTAGGGTTTGGGTAATCGGAGTCACCTAGTGCAG”, the binding signal is 3550 fluorescence intensity (a.u.).

“AGCCGCGGTCACGCACGCCACGCGTTCGATCGATCGATCACGGAGTCACCTAGTGCAG”: the binding signal is 4120 fluorescence intensity (a.u.).

Take “TCCACGGAGATCCAGATCTATCCAACGCTCCACGCACCCACGGAGTCACCTAGTGCAG”: the binding signal was 3610 fluorescence intensity (a.u.).

Take “GGAGGCTGACGTGGATTACGCTGACATGTGGGGCCTATGTCGGAGTCACCTAGTGCAG”: the binding signal was 21200 fluorescence intensity (a.u.).

Take “TCCAGACGCGGCCTCGTCGTCACCACTGCAGCCTCCTCCTCGGAGTCACCTAGTGCAG”: the binding signal is 3710 fluorescence intensity (a.u.).

With “GGGAAAGTTTTGAAAAGAACTCAGCCAGTGAAAATGCATGCGGAGTCACCTAGTGCAG”, the binding signal was 5910 fluorescence intensity (a.u.).

As for “AAAGATGGCATGCCAACAGAGATAGATCAGGGCTCAGGGGCGGAGTCACCTAGTGCAG”, the binding signal is 3150 fluorescence intensity (a.u.).

On to “TAACTCGTGGCATATAGCTGCATCAACCCGTAATGACTTACGGAGTCACCTAGTGCAG”, for which the binding signal was 7040 fluorescence intensity (a.u.).

In the case of “TGGGAGTTTTATTTATATACAACGTGTAGCACTAGCCATTCGGAGTCACCTAGTGCAG”, the binding signal is 3210 fluorescence intensity (a.u.).

Turning to “TCTTATACTAAGATAATAAGATTATATCCTTGTCATCCAACGGAGTCACCTAGTGCAG”, the binding signal was 4430 fluorescence intensity (a.u.).

On to “TAGTTAAAGCCACGTTCTTAATTTCTCCTTTTGCTTTTGGCGGAGTCACCTAGTGCAG”, for which the binding signal is 4020 fluorescence intensity (a.u.).

With “ACGACCGTCCACGCCTCGCGCCACCTCTCGTCCGCCAAACCGGAGTCACCTAGTGCAG”, the binding signal is 4800 fluorescence intensity (a.u.).

Regarding “CGGTTTTGACCCCGATTTATCTGACGTGGCGGCTGAGTCGCGGAGTCACCTAGTGCAG”, the binding signal is 10900 fluorescence intensity (a.u.).

“TGATTGGTAGTACGATTTTACGACACGTTGATCAGCCAGCCGGAGTCACCTAGTGCAG”: the binding signal is 3470 fluorescence intensity (a.u.).

Consider “CCATCGAACTAATGCTTGCCGTCATCTACCAGCATACAGTCGGAGTCACCTAGTGCAG”, for which the binding signal is 3310 fluorescence intensity (a.u.).

In the case of “AGCTGCGCTCGAGCCACGTCAAAGGATCTAGCTAGTACTACGGAGTCACCTAGTGCAG”, the binding signal is 5030 fluorescence intensity (a.u.).

On to “CATCCCCACCTCTCTCCTCCTTCCGACCAATCTTTCTTCTCGGAGTCACCTAGTGCAG”, for which the binding signal was 21300 fluorescence intensity (a.u.).
